Source: the supplement of paper PMC3682954
Counter-ions that a name gives are not always drawn. ± gives the standard deviation of the averaged measurements. The list shows a part of the results. Repeats are few or missing, and single values can be far off.

Test system: RAW 264.7
Test: cell viability (MTT) relative to vehicle control; higher = more viable cells
Conditions: stimulus: HMGB1 5 ug/ml, 18 h
[1] = compound concentration: 1 ug/ml

CO[C@H]1C[C@@H]2CC[C@@H](C)[C@@](O)(O2)C(=O)C(=O)N2CCCC[C@H]2C(=O)O[C@H]([C@H](C)C[C@@H]2CC[C@@H](O)[C@H](OC)C2)CC(=O)[C@H](C)/C=C(\C)[C@@H](O)[C@@H](OC)C(=O)[C@H](C)C[C@H](C)/C=C/C=C/C=C/1C
cell viability (compound concentration: 3 uM): 112 ± 11%

CO[C@H]1C[C@@H]2CC[C@@H](C)[C@@](O)(O2)C(=O)C(=O)N2CCCC[C@H]2C(=O)O[C@H]([C@H](C)C[C@@H]2CC[C@@H](O)[C@H](OC)C2)CC(=O)[C@H](C)/C=C(\C)[C@@H](O)[C@@H](OC)C(=O)[C@H](C)C[C@H](C)/C=C/C=C/C=C/1C [Rapamycin]
cell viability (compound concentration: 3 uM): 99.9%

Cc1cccc(CCN2CCC(C(=O)c3ccc(NS(C)(=O)=O)cc3)CC2)n1
cell viability (compound concentration: 3 uM): 100%

CCN(CC)CCn1c(=O)c(Cc2ccc(OC)cc2)nc2ccccc21 [Caroverine hydrochloride]
cell viability (compound concentration: 3 uM): 106%

CNc1cc(NS(=O)(=O)c2ccc(N)cc2)nc(NC)n1 [Ro 04-6790 dihydrochloride]
cell viability (compound concentration: 3 uM): 120%

NS(=O)(=O)c1ccc(C(=O)O)cc1
cell viability (compound concentration: 3 uM): 110%

O=C(O)P(=O)(O)O
cell viability (compound concentration: 3 uM): 103%

Nc1ncnc2c1ncn2[C@@H]1O[C@H](CO)[C@@H](OP(=O)(O)O)[C@H]1O [3'-Adenylic acid]
cell viability [1]: 99.8%

CCCCCCCCCCCCCCCC[N+](C)(C)CCN(Cc1ccc(OC)cc1)c1ncccn1 [Thonzonium bromide]
cell viability (compound concentration: 3 uM): 86%

Cc1nc(C)c(Cl)c(O)c1Cl
cell viability (compound concentration: 3 uM): 108%

Cc1nc(C)c(Cl)c(O)c1Cl [Clopidol]
cell viability (compound concentration: 3 uM): 96%

CCN(CC)CCCC(C)Nc1c2ccc(Cl)cc2nc2ccc(OC)cc12 (centres undefined) [Quinacrine dihydrochloride dihydrate]
cell viability (compound concentration: 3 uM): 102%

CCN(CC)CCCC(C)Nc1c2ccc(Cl)cc2nc2ccc(OC)cc12 (centres undefined)
cell viability (compound concentration: 3 uM): 86.3 ± 14%

CCN(CC)CCCC(C)Nc1c2ccc(Cl)cc2nc2ccc(OC)cc12 (centres undefined) [Quinacrine]
cell viability (compound concentration: 3 uM): 103%

CCN(CC)CCCC(C)Nc1c2ccc(Cl)cc2nc2ccc(OC)cc12 (centres undefined) [Quinacrine dihydrochloride]
cell viability (compound concentration: 3 uM): 107%

CC(=O)N1CCN(c2ccc(OCC3COC(Cn4ccnc4)(c4ccc(Cl)cc4Cl)O3)cc2)CC1 (centres undefined)
cell viability (compound concentration: 3 uM): 105 ± 11%

CC(=O)N1CCN(c2ccc(OCC3COC(Cn4ccnc4)(c4ccc(Cl)cc4Cl)O3)cc2)CC1 (centres undefined) [Ketoconazole]
cell viability (compound concentration: 3 uM): 103 ± 3.1%

CN(CCOc1ccc(NS(C)(=O)=O)cc1)CCc1ccc(NS(C)(=O)=O)cc1 [Dofetilide]
cell viability (compound concentration: 3 uM): 90.1%

CN(CCOc1ccc(NS(C)(=O)=O)cc1)CCc1ccc(NS(C)(=O)=O)cc1
cell viability (compound concentration: 3 uM): 96.2%

COc1cc(C=O)ccc1O [Vanillin]
cell viability [1]: 96.4%

CC1=C(C)C(=O)C(CCCCC#CCCCC#CCO)=C(C)C1=O
cell viability (compound concentration: 3 uM): 101%

CC1=C(C)C(=O)C(CCCCC#CCCCC#CCO)=C(C)C1=O [Docebenone]
cell viability (compound concentration: 3 uM): 107%

CC(C)NCC(O)c1ccc(NS(C)(=O)=O)cc1 (centres undefined) [Sotalol]
cell viability (compound concentration: 3 uM): 102%

CC(C)NCC(O)c1ccc(NS(C)(=O)=O)cc1 (centres undefined) [Sotalol hydrochloride]
cell viability (compound concentration: 3 uM): 105%

C#C[C@]1(O)CC[C@H]2[C@@H]3CCc4cc(OC)ccc4[C@H]3CC[C@@]21C [Ethynylestradiol 3-methyl ether]
cell viability (compound concentration: 3 uM): 90.3%

C#C[C@]1(O)CC[C@H]2[C@@H]3CCc4cc(OC)ccc4[C@H]3CC[C@@]21C
cell viability (compound concentration: 3 uM): 108 ± 11%

CCCc1nc(C)c2c(O)nc(-c3cc(S(=O)(=O)N4CCN(CC)CC4)ccc3OCC)nn12
cell viability (compound concentration: 3 uM): 108%

COc1cc(OC)c(C(=O)/C=C/c2ccc(OC)c(OC)c2)c(OC)c1 [3,4,2',4',6'-Pentamethoxychalcone]
cell viability [1]: 95%

Nc1c2c(nc3c1CCC3)CCCC2
cell viability (compound concentration: 3 uM): 95.7%

N[C@H](Cc1ccccc1)C(=O)O
cell viability (compound concentration: 3 uM): 106%

O=c1cc(-c2cccc(O)c2O)oc2ccccc12
cell viability [1]: 87.8%

O=c1c(-c2ccc(O)cc2)coc2cc(O)cc(O)c12 [Genistein]
cell viability (compound concentration: 3 uM): 103%

CCOC(=O)Nc1ccc2c(c1)N(C(=O)CCN1CCOCC1)c1ccccc1S2 [Moricizine hydrochloride]
cell viability (compound concentration: 3 uM): 88.5%

O=C(O)CN(CCOCCOCCN(CC(=O)O)CC(=O)O)CC(=O)O
cell viability (compound concentration: 3 uM): 106%

CNC(=C[N+](=O)[O-])NCCSCc1ccc(CN(C)C)o1
cell viability (compound concentration: 3 uM): 106%

CNC(=C[N+](=O)[O-])NCCSCc1ccc(CN(C)C)o1 [Ranitidine hydrochloride]
cell viability (compound concentration: 3 uM): 112 ± 11%

CNC(=C[N+](=O)[O-])NCCSCc1ccc(CN(C)C)o1 [Ranitidine]
cell viability (compound concentration: 3 uM): 118%

C=CCc1ccc(O)c(-c2ccc(O)c(CC=C)c2)c1
cell viability (compound concentration: 3 uM): 97.3%

CC(C)C[C@H](NC(=O)[C@@H](O)[C@H](N)Cc1ccccc1)C(=O)O
cell viability (compound concentration: 3 uM): 98.2%

CC(C)C[C@H](NC(=O)[C@@H](O)[C@H](N)Cc1ccccc1)C(=O)O [Bestatin hydrochloride]
cell viability (compound concentration: 3 uM): 94.5%

COC(=O)[C@H]1[C@H]2C[C@@H]3c4[nH]c5cc(OC)ccc5c4CCN3C[C@H]2C[C@@H](OC(=O)c2cc(OC)c(OC)c(OC)c2)[C@@H]1OC
cell viability (compound concentration: 3 uM): 107%

COC(=O)[C@H]1[C@H]2C[C@@H]3c4[nH]c5cc(OC)ccc5c4CCN3C[C@H]2C[C@@H](OC(=O)c2cc(OC)c(OC)c(OC)c2)[C@@H]1OC [Reserpine]
cell viability [1]: 108%
cell viability (compound concentration: 3 uM): 105 ± 2.7%

CN(C)CCCSc1ccccc1NC(=O)/C=C/c1ccccc1 [Cinanserin]
cell viability (compound concentration: 3 uM): 100.35 ± 0.028%

CCOC(=O)[C@H](CCc1ccccc1)N[C@@H](C)C(=O)N1[C@H](C(=O)O)C[C@H]2CCCC[C@@H]21 [Trandolapril]
cell viability (compound concentration: 3 uM): 106%

O=C(O[C@@H]1Cc2c(O)cc(O)cc2O[C@@H]1c1cc(O)c(O)c(O)c1)c1cc(O)c(O)c(O)c1 [Epigallocatechin gallate]
cell viability (compound concentration: 3 uM): 100%

CC(C)(CO)[C@@H](O)C(=O)NCCCO
cell viability (compound concentration: 3 uM): 116%

CC(C)(CO)[C@@H](O)C(=O)NCCCO (racemic) [D-Panthenol; dl-form as vitamin]
cell viability [1]: 98.8%

CNC[C@H](O)c1cccc(O)c1 [Phenylephrine hydrochloride]
cell viability (compound concentration: 3 uM): 98.2%

CNC[C@H](O)c1cccc(O)c1
cell viability (compound concentration: 3 uM): 107%

CC(=O)NNC(=O)N1Cc2ccccc2Oc2ccc(Cl)cc21
cell viability (compound concentration: 3 uM): 119%

CCN(CC)CCNC(=O)c1ccc(NC(C)=O)cc1
cell viability (compound concentration: 3 uM): 102%

CCN(CC)CCNC(=O)c1ccc(NC(C)=O)cc1 [N-Acetylprocainamide hydrochloride]
cell viability (compound concentration: 3 uM): 105%

CCCCCCN(CCCCCC)C(=O)Cc1c(-c2ccc(F)cc2)[nH]c2ccccc12 [N,N-Dihexyl-2-(4-fluorophenyl)indole-3-acetamide]
cell viability (compound concentration: 3 uM): 98.8%

CCC(=O)NS(=O)(=O)c1ccc(-c2c(-c3ccccc3)noc2C)cc1
cell viability (compound concentration: 3 uM): 93%

[Cl-].[Li+] [Lithium Chloride]
cell viability (compound concentration: 3 uM): 104%

NC(Cc1c[nH]c2cc(F)ccc12)C(=O)O (racemic) [6-Fluoro-DL-tryptophan]
cell viability [1]: 113%

CCN(CC)CCCC(C)Nc1ccnc2cc(Cl)ccc12 (centres undefined)
cell viability (compound concentration: 3 uM): 105 ± 7.9%

CCN(CC)CCCC(C)Nc1ccnc2cc(Cl)ccc12 (centres undefined) [Chloroquine diphosphate]
cell viability (compound concentration: 3 uM): 96.6 ± 4.7%

CCN(CC)CCCC(C)Nc1ccnc2cc(Cl)ccc12 (centres undefined) [Chloroquine]
cell viability (compound concentration: 3 uM): 101%

CS(=O)(=O)c1ccc([C@@H](O)[C@@H](CF)NC(=O)C(Cl)Cl)cc1
cell viability (compound concentration: 3 uM): 96.7%

CS(=O)(=O)c1ccc([C@@H](O)[C@@H](CF)NC(=O)C(Cl)Cl)cc1 [Florfenicol]
cell viability (compound concentration: 3 uM): 112 ± 7.1%

CC(C)NCC(O)COc1cccc2ccccc12 (racemic)
cell viability (compound concentration: 3 uM): 107%

CC(C)NCC(O)COc1cccc2ccccc12 (racemic) [(±)-Propranolol hydrochloride]
cell viability (compound concentration: 3 uM): 103%

C[C@](N)(Cc1ccc(O)cc1)C(=O)O [L-alpha-Methyl-p-tyrosine]
cell viability (compound concentration: 3 uM): 117%

CNCCNS(=O)(=O)c1cccc2cnccc12 [H-8 dihydrochloride]
cell viability (compound concentration: 3 uM): 117%

CCNC(=O)[C@H]1O[C@@H](n2cnc3c(N)nc(NCCc4ccc(CCC(=O)O)cc4)nc32)[C@H](O)[C@@H]1O
cell viability (compound concentration: 3 uM): 113%

Cc1cccc(C)c1NC(=O)c1ccccc1C(=O)O
cell viability (compound concentration: 3 uM): 112%

C=C(CC)C(=O)c1ccc(OCC(=O)O)c(Cl)c1Cl
cell viability (compound concentration: 3 uM): 96.2%

C=C(CC)C(=O)c1ccc(OCC(=O)O)c(Cl)c1Cl [Ethacrynic Acid]
cell viability (compound concentration: 3 uM): 107%

C=C(CC)C(=O)c1ccc(OCC(=O)O)c(Cl)c1Cl [Ethacrynic acid]
cell viability (compound concentration: 3 uM): 97.7%

CC(C)c1nc(N(C)S(C)(=O)=O)nc(-c2ccc(F)cc2)c1/C=C/[C@@H](O)C[C@@H](O)CC(=O)O
cell viability (compound concentration: 3 uM): 110%

C[N+](C)(C)CCOP(=O)(O)OP(=O)([O-])OC[C@H]1O[C@@H](n2ccc(N)nc2=O)[C@H](O)[C@@H]1O [Cytidine 5'-diphosphocholine sodium salt hydrate]
cell viability (compound concentration: 3 uM): 94.5%

C[N+](C)(C)CCOP(=O)(O)OP(=O)([O-])OC[C@H]1O[C@@H](n2ccc(N)nc2=O)[C@H](O)[C@@H]1O
cell viability (compound concentration: 3 uM): 105%

Nc1ccc(S(=O)(=O)NC(=O)c2ccccc2)cc1 [Sulfabenzamide]
cell viability (compound concentration: 3 uM): 105%

Nc1ccc(S(=O)(=O)NC(=O)c2ccccc2)cc1
cell viability (compound concentration: 3 uM): 101%

CCCCCN(C)CCC(O)(P(=O)(O)O)P(=O)(O)O [Ibandronate sodium]
cell viability (compound concentration: 3 uM): 129%

CCCCCN(C)CCC(O)(P(=O)(O)O)P(=O)(O)O [Ibandronate]
cell viability (compound concentration: 3 uM): 106 ± 8.2%

O=C(O)C1=C[C@@H](O)[C@@H](O)[C@H](O)C1 [Shikimic acid]
cell viability [1]: 103%

C1N2CN3CN1CN(C2)C3 [Methenamine]
cell viability (compound concentration: 3 uM): 99.2%

C1N2CN3CN1CN(C2)C3
cell viability (compound concentration: 3 uM): 97.3%

O=C1NCCN1c1ncc([N+](=O)[O-])s1 [Niridazole]
cell viability (compound concentration: 3 uM): 117%

Nc1ncnc2c1ncn2[C@@H]1O[C@H](CO)C[C@@H]1O [3'-deoxydenosine]
cell viability (compound concentration: 3 uM): 96%

CN=c1nc(-c2ccccc2)n(-c2ccccc2)s1
cell viability (compound concentration: 3 uM): 116%
